Data published in patent US10772928B2, “Modulation and detection of a neuronal alternative splicing regulatory network for treatment and diagnosis of neurological disorders” (The Governing Council of the University of Toronto, priority 2014, dated 2020).

Tested on: microexons
Assay: Neural-regulated microexons by RNA-Seq pipeline across mouse cell and tissue types

Substance	Regulation in Brain (mouse neural-regulated microexons, coordinates mm9)	Regulation in Brain (mouse neural-regulated microexon (mm9), NEURAL-UP or NEURAL-DOWN)
Dtnb	NEURAL-UP	–
Sbf1	–	NEURAL-UP
